# In the supplement of paper PMC8728848:
# This is one part of the list.
# B1: LF82 (Escherichia coli) (protein)
# chain: ADWGPCRTASGDPFIFVTSFTKNIQNPTDNVTGQTYPDFYQWALGDKYSGVCECPSPNPTEARPTLYKTESTLAAGHNSTYFKITNNLEVSTRVYIANVGNVQVPFINKSNSQPGRECDQPTFGWTTGSKGQLSLYIAKPFVGEQNIPQTIIVSVFGTKKENVYSSVPISQVLLSGKVTVTQGCELAAGTSLDIDFGEYQAHDFKGRTGQPPQNVQKIQKELTFNCTNISDGVHIYLSLEGTPNAAYPSAISLGNADVGAVIEDGKGNILKPNDSNSLLEMNPGSLYEYVKRKVTTTITAYPVSTTGKLPAAGDYSGVATMHVELDGGGGGGGGGGATTDLGAKGTLKFSLKISQGHHHHHH
# Columns and labels:
# Test in all cases: glycan array binding signal (z-score within array); higher = stronger binding
# Conditions in all cases: glycan notation: IUPAC condensed, linker removed
# [1] = molecular target: GlcNAc(b1-2)[GlcNAc(b1-4)]Man(a1-3)[GlcNAc(b1-4)][GlcNAc(b1-2)[GlcNAc(b1-6)]Man(a1-6)]Man(b1-4)GlcNAc(b1-4)GlcNAc
# Method in brief: (§1)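 The binding signal is a Z-score computed within each array and averaged over linkers. Arrays of the same protein sequence at different concentrations or buffers were also averaged together. Data originate from 3228 arrays in the Consortium for Functional Glycomics database, kept only where the protein sequence was available.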
# [2] = molecular target: GlcNAc(b1-2)[GlcNAc(b1-4)]Man(a1-3)[GlcNAc(b1-4)][GlcNAc(b1-2)[GlcNAc(b1-6)]Man(a1-6)]Man(b1-4)GlcNAc(b1-4)[Fuc(a1-6)]GlcNAc
# Method in brief: as §1
# [3] = molecular target: GlcNAc(b1-2)[GlcNAc(b1-6)]Man(a1-6)[GlcNAc(b1-2)Man(a1-3)]Man(b1-4)GlcNAc(b1-4)GlcNAc
# Method in brief: as §1
# [4] = molecular target: GlcNAc(b1-2)[GlcNAc(b1-6)]Man(a1-6)[GlcNAc(b1-2)Man(a1-3)]Man(b1-4)GlcNAc(b1-4)[Fuc(a1-6)]GlcNAc
# Method in brief: as §1
# [5] = molecular target: GlcNAc(b1-2)[GlcNAc(b1-6)]Man(a1-6)[GlcNAc(b1-4)][GlcNAc(b1-2)Man(a1-3)]Man(b1-4)GlcNAc(b1-4)GlcNAc
# Method in brief: as §1
# GlcNAc(b1-3)Fuc = molecular target: GlcNAc(b1-3)Fuc
# Method in brief: as §1
# GlcNAc(b1-3)Gal = molecular target: GlcNAc(b1-3)Gal
# Method in brief: as §1
# [6] = molecular target: GlcNAc(b1-3)Gal(b1-3)GalNAc
# Method in brief: as §1
# GlcNAc(b1-3)Gal(b1-4)Glc = molecular target: GlcNAc(b1-3)Gal(b1-4)Glc
# Method in brief: as §1
# [7] = molecular target: GlcNAc(b1-3)Gal(b1-4)GlcNAc
# Method in brief: as §1
# [8] = molecular target: GlcNAc(b1-3)Gal(b1-4)GlcNAc(b1-2)Man(a1-3)[GlcNAc(b1-3)Gal(b1-4)GlcNAc(b1-2)Man(a1-6)]Man(b1-4)GlcNAc(b1-4)GlcNAc
# Method in brief: as §1
# [9] = molecular target: GlcNAc(b1-3)Gal(b1-4)GlcNAc(b1-2)Man(a1-3)[GlcNAc(b1-3)Gal(b1-4)GlcNAc(b1-2)Man(a1-6)]Man(b1-4)GlcNAc(b1-4)[Fuc(a1-6)]GlcNAc
# Method in brief: as §1
# [10] = molecular target: GlcNAc(b1-3)Gal(b1-4)GlcNAc(b1-2)[GlcNAc(b1-3)Gal(b1-4)GlcNAc(b1-6)]Man(a1-6)[GlcNAc(b1-3)Gal(b1-4)GlcNAc(b1-2)Man(a1-3)]Man(b1-4)GlcNAc(b1-4)GlcNAc
# Method in brief: as §1
# [11] = molecular target: GlcNAc(b1-3)Gal(b1-4)GlcNAc(b1-3)Gal(b1-4)GlcNAc
# Method in brief: as §1
# [12] = molecular target: GlcNAc(b1-3)Gal(b1-4)GlcNAc(b1-3)Gal(b1-4)GlcNAc(b1-2)Man(a1-3)[GlcNAc(b1-3)Gal(b1-4)GlcNAc(b1-3)Gal(b1-4)GlcNAc(b1-2)Man(a1-6)]Man(b1-4)GlcNAc(b1-4)GlcNAc
# Method in brief: as §1
# [13] = molecular target: GlcNAc(b1-3)Gal(b1-4)GlcNAc(b1-3)Gal(b1-4)GlcNAc(b1-2)Man(a1-3)[GlcNAc(b1-3)Gal(b1-4)GlcNAc(b1-3)Gal(b1-4)GlcNAc(b1-2)Man(a1-6)]Man(b1-4)GlcNAc(b1-4)[Fuc(a1-6)]GlcNAc
# Method in brief: as §1
# [14] = molecular target: GlcNAc(b1-3)Gal(b1-4)GlcNAc(b1-3)Gal(b1-4)GlcNAc(b1-2)[GlcNAc(b1-3)Gal(b1-4)GlcNAc(b1-3)Gal(b1-4)GlcNAc(b1-6)]Man(a1-6)[GlcNAc(b1-3)Gal(b1-4)GlcNAc(b1-3)Gal(b1-4)GlcNAc(b1-2)Man(a1-3)]Man(b1-4)GlcNAc(b1-4)[Fuc(a1-6)]GlcNAc
# Method in brief: as §1
# [15] = molecular target: GlcNAc(b1-3)Gal(b1-4)GlcNAc(b1-3)Gal(b1-4)GlcNAc(b1-3)Gal(b1-4)GlcNAc(b1-2)Man(a1-3)[GlcNAc(b1-3)Gal(b1-4)GlcNAc(b1-3)Gal(b1-4)GlcNAc(b1-3)Gal(b1-4)GlcNAc(b1-2)Man(a1-6)]Man(b1-4)GlcNAc(b1-4)GlcNAc
# Method in brief: as §1
# [16] = molecular target: GlcNAc(b1-3)Gal(b1-4)GlcNAc(b1-3)Gal(b1-4)GlcNAc(b1-3)Gal(b1-4)GlcNAc(b1-2)Man(a1-3)[GlcNAc(b1-3)Gal(b1-4)GlcNAc(b1-3)Gal(b1-4)GlcNAc(b1-3)Gal(b1-4)GlcNAc(b1-2)Man(a1-6)]Man(b1-4)GlcNAc(b1-4)[Fuc(a1-6)]GlcNAc
# Method in brief: as §1
# [17] = molecular target: GlcNAc(b1-3)Gal(b1-4)GlcNAc(b1-3)Gal(b1-4)GlcNAc(b1-3)Gal(b1-4)GlcNAc(b1-2)[GlcNAc(b1-3)Gal(b1-4)GlcNAc(b1-3)Gal(b1-4)GlcNAc(b1-3)Gal(b1-4)GlcNAc(b1-6)]Man(a1-6)[GlcNAc(b1-3)Gal(b1-4)GlcNAc(b1-3)Gal(b1-4)GlcNAc(b1-3)Gal(b1-4)GlcNAc(b1-2)Man(a1-3)]Man(b1-4)GlcNAc(b1-4)[Fuc(a1-6)]GlcNAc
# Method in brief: as §1
# [18] = molecular target: GlcNAc(b1-3)Gal(b1-4)GlcNAc(b1-3)Gal(b1-4)GlcNAc(b1-3)Gal(b1-4)GlcNAc(b1-3)Gal(b1-4)GlcNAc(b1-2)Man(a1-3)[GlcNAc(b1-3)Gal(b1-4)GlcNAc(b1-3)Gal(b1-4)GlcNAc(b1-3)Gal(b1-4)GlcNAc(b1-3)Gal(b1-4)GlcNAc(b1-2)Man(a1-6)]Man(b1-4)GlcNAc(b1-4)GlcNAc
# Method in brief: as §1
# [19] = molecular target: GlcNAc(b1-3)Gal(b1-4)GlcNAc(b1-3)Gal(b1-4)GlcNAc(b1-3)Gal(b1-4)GlcNAc(b1-3)Gal(b1-4)GlcNAc(b1-2)Man(a1-3)[GlcNAc(b1-3)Gal(b1-4)GlcNAc(b1-3)Gal(b1-4)GlcNAc(b1-3)Gal(b1-4)GlcNAc(b1-3)Gal(b1-4)GlcNAc(b1-2)Man(a1-6)]Man(b1-4)GlcNAc(b1-4)[Fuc(a1-6)]GlcNAc
# Method in brief: as §1
# [20] = molecular target: GlcNAc(b1-3)Gal(b1-4)GlcNAc(b1-3)Gal(b1-4)GlcNAc(b1-3)Gal(b1-4)GlcNAc(b1-3)Gal(b1-4)GlcNAc(b1-2)[GlcNAc(b1-3)Gal(b1-4)GlcNAc(b1-3)Gal(b1-4)GlcNAc(b1-3)Gal(b1-4)GlcNAc(b1-3)Gal(b1-4)GlcNAc(b1-6)]Man(a1-6)[GlcNAc(b1-3)Gal(b1-4)GlcNAc(b1-3)Gal(b1-4)GlcNAc(b1-3)Gal(b1-4)GlcNAc(b1-3)Gal(b1-4)GlcNAc(b1-2)Man(a1-3)]Man(b1-4)GlcNAc(b1-4)[Fuc(a1-6)]GlcNAc
# Method in brief: as §1
# [21] = molecular target: GlcNAc(b1-3)Gal(b1-4)GlcNAc(b1-3)Gal(b1-4)GlcNAc(b1-3)GalNAc
# Method in brief: as §1
# [22] = molecular target: GlcNAc(b1-3)Gal(b1-4)GlcNAc(b1-3)GalNAc
# Method in brief: as §1
# [23] = molecular target: GlcNAc(b1-3)Gal(b1-4)GlcNAc(b1-3)[GlcNAc(b1-3)Gal(b1-4)GlcNAc(b1-3)]GalNAc
# Method in brief: as §1
# [24] = molecular target: GlcNAc(b1-3)Gal(b1-4)GlcNAc(b1-6)[Gal(b1-3)]GalNAc
# Method in brief: as §1
# [25] = molecular target: GlcNAc(b1-3)Gal(b1-4)GlcNAc(b1-6)[GlcNAc(b1-3)Gal(b1-3)]GalNAc
# Method in brief: as §1
# [26] = molecular target: GlcNAc(b1-3)Gal(b1-4)GlcNAc(b1-6)[GlcNAc(b1-3)]Gal(b1-4)GlcNAc
# Method in brief: as §1
# GlcNAc(b1-3)GalNAc = molecular target: GlcNAc(b1-3)GalNAc
# Method in brief: as §1
# GlcNAc(b1-3)Man = molecular target: GlcNAc(b1-3)Man
# Method in brief: as §1
# [27] = molecular target: GlcNAc(b1-3)[GlcNAc(b1-4)][GlcNAc(b1-6)]GlcNAc
# Method in brief: as §1
# [28] = molecular target: GlcNAc(b1-3)[GlcNAc(b1-6)]Gal(b1-4)GlcNAc
# Method in brief: as §1
# [29] = molecular target: GlcNAc(b1-3)[GlcNAc(b1-6)]GalNAc
# Method in brief: as §1
# [30] = molecular target: GlcNAc(b1-4)Gal(b1-4)GlcNAc
# Method in brief: as §1
# GlcNAc(b1-4)GlcNAc = molecular target: GlcNAc(b1-4)GlcNAc
# Method in brief: as §1
# [31] = molecular target: GlcNAc(b1-4)GlcNAc(b1-4)GlcNAc
# Method in brief: as §1
# [32] = molecular target: GlcNAc(b1-4)GlcNAc(b1-4)GlcNAc(b1-4)GlcNAc(b1-4)GlcNAc
# Method in brief: as §1
binder,measurement,setting,value
B1,glycan array binding signal (z-score),[1],1.13
same,glycan array binding signal (z-score),[2],0.136
same,glycan array binding signal (z-score),[3],-1.47
same,glycan array binding signal (z-score),[4],1.18
same,glycan array binding signal (z-score),[5],-0.361
same,glycan array binding signal (z-score),GlcNAc(b1-3)Fuc,-0.845
same,glycan array binding signal (z-score),GlcNAc(b1-3)Gal,-0.649
same,glycan array binding signal (z-score),[6],0.427
same,glycan array binding signal (z-score),GlcNAc(b1-3)Gal(b1-4)Glc,-0.481
same,glycan array binding signal (z-score),[7],0.711
same,glycan array binding signal (z-score),[8],-0.713
same,glycan array binding signal (z-score),[9],0.507
same,glycan array binding signal (z-score),[10],0.577
same,glycan array binding signal (z-score),[11],-0.288
same,glycan array binding signal (z-score),[12],1.79
same,glycan array binding signal (z-score),[13],-0.141
same,glycan array binding signal (z-score),[14],-0.333
same,glycan array binding signal (z-score),[15],-1.02
same,glycan array binding signal (z-score),[16],0.644
same,glycan array binding signal (z-score),[17],0.097
same,glycan array binding signal (z-score),[18],-1.09
same,glycan array binding signal (z-score),[19],2.17
same,glycan array binding signal (z-score),[20],0.23
same,glycan array binding signal (z-score),[21],0.656
same,glycan array binding signal (z-score),[22],-0.433
same,glycan array binding signal (z-score),[23],-1.02
same,glycan array binding signal (z-score),[24],-0.509
same,glycan array binding signal (z-score),[25],0.416
same,glycan array binding signal (z-score),[26],-0.441
same,glycan array binding signal (z-score),GlcNAc(b1-3)GalNAc,1.39
same,glycan array binding signal (z-score),GlcNAc(b1-3)Man,0.644
same,glycan array binding signal (z-score),[27],-0.52
same,glycan array binding signal (z-score),[28],-0.184
same,glycan array binding signal (z-score),[29],-0.992
same,glycan array binding signal (z-score),[30],-0.28
same,glycan array binding signal (z-score),GlcNAc(b1-4)GlcNAc,0.06
same,glycan array binding signal (z-score),[31],-0.274
same,glycan array binding signal (z-score),[32],-0.044

# Two records drawn at random from the list so far:
binder,measurement,setting,value
B1,glycan array binding signal (z-score),[28],-0.184
same,glycan array binding signal (z-score),[26],-0.441
